Source: PubChem BioAssay AID248 (DTP/NCI, 2004)
The list shows only some results of the screen, not a fair sample: it is rich in T/C values a quarter to a half above the control, in often repeated tests (any T/C) and in doses without a T/C. Other doses and runs of a compound stand elsewhere. T/C gives the treated animals as a percentage of the vehicle group. Some entries give survivors of the animals treated and no T/C: the source files T/C as zero there, which appears to mark a toxic dose or a test without result, not a measured value. Some doses without a T/C left all or most animals alive at the check, yet need not have been tolerated: survival well below the control is almost never listed, so the zero probably covers shortened survival too. Survivors were counted at the toxicity check, usually on the fifth day, unless a day is given; later deaths do not show. Schedules are NCI's codes, read here as Q, the interval in days (D) or hours (H), X, the number of doses. Some structures stand for samples that the source files as different forms (salt, stereo form or complex); doses refer to the form tested. Some entries were tested several times; the values are given in rising order. Where survival is the endpoint, the PubChem record calls one and a half times the control and up active, and a quarter to a half above the control has no call in these data; cut-offs in other NCI protocols can differ.

Test system: L1210 leukemia ip in BDF1 mice, survival T/C
Assay: NCI In Vivo Anticancer Drug Screen. Data for tumor model L1210 Leukemia (intraperitoneal) in B6D2F1 (BDF1) mice
Conditions: T/C endpoint: mean survival time, higher T/C = longer survival
[1] = dose: 50.0 mg/kg/injection, schedule: Q01DX009 (ip), vehicle: Klucel (hydroxypropylcellulose) (HPC)
[2] = dose: 100.0 mg/kg/injection, schedule: Q04DX003 (ip), vehicle: Klucel (hydroxypropylcellulose) (HPC)
[3] = dose: 200.0 mg/kg/injection, schedule: Q04DX003 (ip), vehicle: Klucel (hydroxypropylcellulose) (HPC)
[4] = dose: 400.0 mg/kg/injection, schedule: Q01DX001 (ip), vehicle: saline
[5] = dose: 400.0 mg/kg/injection, schedule: Q04DX003 (ip), vehicle: Klucel (hydroxypropylcellulose) (HPC)
[6] = dose: 50.0 mg/kg/injection, schedule: Q01DX009 (ip), vehicle: saline with Tween-80
[7] = dose: 100.0 mg/kg/injection, schedule: Q01DX009 (ip), vehicle: saline with Tween-80
[8] = dose: 400.0 mg/kg/injection, schedule: Q01DX009 (ip), vehicle: saline with Tween-80
[9] = dose: 200.0 mg/kg/injection, schedule: Q01DX009 (ip), vehicle: Klucel (hydroxypropylcellulose) (HPC)
[10] = dose: 200.0 mg/kg/injection, schedule: Q04DX003 (ip), vehicle: saline
[11] = dose: 400.0 mg/kg/injection, schedule: Q04DX003 (ip), vehicle: saline

O=C1CC2OCC=C3CN4CCC56c7ccccc7N1C5C2C3CC46 (stereo not drawn) (tested in a mixture with another compound)
survivor count (dose: 2.3 mg/kg/injection, schedule: Q01DX009 (ip), vehicle: saline): 0 of 6
survivor count (dose: 3.0 mg/kg/injection, schedule: Q01DX009 (ip), vehicle: Klucel (hydroxypropylcellulose) (HPC)): 0 of 6 and 2 of 6
survivor count (dose: 3.0 mg/kg/injection, schedule: Q04DX003 (ip), vehicle: Klucel (hydroxypropylcellulose) (HPC)): 3 of 6
survivor count (dose: 3.12 mg/kg/injection, schedule: Q04DX003 (ip), vehicle: alcohol): 4 of 6
survivor count (dose: 3.12 mg/kg/injection, schedule: Q04DX003 (ip), vehicle: saline): 3 of 6
survivor count (dose: 3.13 mg/kg/injection, schedule: Q04DX003 (ip), vehicle: saline + alcohol): 0 of 6
survivor count (dose: 3.5 mg/kg/injection, schedule: Q01DX009 (ip), vehicle: saline): 0 of 6
survivor count (dose: 5.2 mg/kg/injection, schedule: Q01DX009 (ip), vehicle: saline): 0 of 6
survivor count (dose: 6.0 mg/kg/injection, schedule: Q01DX009 (ip), vehicle: Klucel (hydroxypropylcellulose) (HPC)): 0 of 6
survivor count (dose: 6.0 mg/kg/injection, schedule: Q04DX003 (ip), vehicle: Klucel (hydroxypropylcellulose) (HPC)): 0 of 6
survivor count (dose: 6.25 mg/kg/injection, schedule: Q04DX003 (ip), vehicle: alcohol): 0 of 6
survivor count (dose: 12.0 mg/kg/injection, schedule: Q01DX009 (ip), vehicle: Klucel (hydroxypropylcellulose) (HPC)): 0 of 6
survivor count (dose: 12.0 mg/kg/injection, schedule: Q04DX003 (ip), vehicle: Klucel (hydroxypropylcellulose) (HPC)): 0 of 6
survivor count (dose: 12.5 mg/kg/injection, schedule: Q01DX001 (ip), vehicle: saline): 0 of 6
survivor count (dose: 12.5 mg/kg/injection, schedule: Q01DX009 (ip), vehicle: Klucel (hydroxypropylcellulose) (HPC)): 0 of 6
survivor count (dose: 12.5 mg/kg/injection, schedule: Q04DX003 (ip), vehicle: saline): 0 of 6
survivor count (dose: 25.0 mg/kg/injection, schedule: Q01DX001 (ip), vehicle: saline): 0 of 6
survivor count (dose: 25.0 mg/kg/injection, schedule: Q01DX009 (ip), vehicle: Klucel (hydroxypropylcellulose) (HPC)): 0 of 6
survivor count (dose: 25.0 mg/kg/injection, schedule: Q04DX003 (ip), vehicle: Klucel (hydroxypropylcellulose) (HPC)): 0 of 6
survivor count (dose: 25.0 mg/kg/injection, schedule: Q04DX003 (ip), vehicle: saline): 0 of 6
survivor count (dose: 50.0 mg/kg/injection, schedule: Q01DX001 (ip), vehicle: saline): 0 of 6
survivor count [1]: 0 of 6
survivor count (dose: 50.0 mg/kg/injection, schedule: Q04DX003 (ip), vehicle: Klucel (hydroxypropylcellulose) (HPC)): 0 of 6
survivor count (dose: 50.0 mg/kg/injection, schedule: Q04DX003 (ip), vehicle: saline): 0 of 6
survivor count (dose: 100.0 mg/kg/injection, schedule: Q01DX001 (ip), vehicle: saline): 0 of 6
survivor count [2]: 0 of 6
survivor count (dose: 100.0 mg/kg/injection, schedule: Q04DX003 (ip), vehicle: alcohol): 0 of 6
survivor count (dose: 200.0 mg/kg/injection, schedule: Q01DX001 (ip), vehicle: saline): 0 of 6
survivor count [3]: 0 of 6
survivor count (dose: 200.0 mg/kg/injection, schedule: Q04DX003 (ip), vehicle: alcohol): 0 of 6
survivor count [4]: 0 of 6
survivor count [5]: 0 of 6
survivor count (dose: 400.0 mg/kg/injection, schedule: Q04DX003 (ip), vehicle: alcohol): 0 of 6

FC(F)(F)c1ccc2nc(CI)c(CI)nc2c1
survivor count (dose: 25.0 mg/kg/injection, schedule: Q01DX009 (ip), vehicle: other): 6 of 6
survivor count (dose: 25.0 mg/kg/injection, schedule: Q01DX009 (ip), vehicle: saline with Tween-80): 4 of 6
survivor count (dose: 50.0 mg/kg/injection, schedule: Q01DX009 (ip), vehicle: other): 4 of 6
survivor count [6]: 1 of 6
survivor count (dose: 100.0 mg/kg/injection, schedule: Q01DX009 (ip), vehicle: other): 0 of 6
survivor count [7]: 0 of 6
survivor count (dose: 100.0 mg/kg/injection, schedule: Q04DX003 (ip), vehicle: other): 6 of 6
survivor count (dose: 200.0 mg/kg/injection, schedule: Q01DX009 (ip), vehicle: saline with Tween-80): 0 of 6
survivor count (dose: 200.0 mg/kg/injection, schedule: Q04DX003 (ip), vehicle: other): 0 of 6
survivor count [8]: 0 of 6
survivor count (dose: 400.0 mg/kg/injection, schedule: Q04DX003 (ip), vehicle: other): 1 of 6

CCCC1(c2ccccc2)C(C#N)C(=O)NC(=O)C1C#N (stereo not drawn)
survivor count [4]: 0 of 4

Cc1ccc(S(=O)(=O)NCCCCCC(=O)OCc2ccccc2)cc1
survivor count (dose: 400.0 mg/kg/injection, schedule: Q01DX009 (ip), vehicle: saline): 4 of 6

CCOc1ccc2nc(Cl)sc2c1
survivor count [9]: 0 of 6
survivor count (dose: 300.0 mg/kg/injection, schedule: Q04DX003 (ip), vehicle: Klucel (hydroxypropylcellulose) (HPC)): 0 of 6

CC(=O)OCCC/C(=C\c1cccc([N+](=O)[O-])c1)[N+](=O)[O-]
survivor count (dose: 200.0 mg/kg/injection, schedule: Q01DX001 (ip), vehicle: other): 2 of 4
survivor count (dose: 400.0 mg/kg/injection, schedule: Q01DX001 (ip), vehicle: other): 0 of 4

Cc1cc([N+](=O)[O-])c2ccccc2[n+]1[O-]
survivor count [6]: 5 of 6
survivor count [7]: 2 of 6

CS(=O)(=O)OCCC(=O)NCCCCNC(=O)CCOS(C)(=O)=O
T/C [10]: 127 % of control
T/C (dose: 264.0 mg/kg/injection, schedule: Q01DX009 (ip), vehicle: saline with Tween-80): 137 % of control
T/C [4]: 129 and 135 % of control
T/C [11]: 132 % of control

COC(=O)C1=C(C(=O)OC)C2OC1C(COC(C)=O)=C2COC(C)=O
survivor count [10]: 3 of 6
survivor count [11]: 0 of 6

O=c1cc(CCl)[nH]nc1CCl
T/C (dose: 14.5 mg/kg/injection, schedule: Q04DX003 (ip), vehicle: saline with Tween-80): 145 % of control
T/C (dose: 33.0 mg/kg/injection, schedule: Q04DX003 (ip), vehicle: saline with Tween-80): 130 % of control
T/C (dose: 50.0 mg/kg/injection, schedule: Q04DX003 (ip), vehicle: saline with Tween-80, evaluated on day 20): 132 % of control
T/C (dose: 50.0 mg/kg/injection, schedule: Q04DX003 (ip), vehicle: saline with Tween-80, evaluated on day 30): 134 % of control
survivor count (dose: 100.0 mg/kg/injection, schedule: Q04DX003 (ip), vehicle: saline with Tween-80): 6 of 6
survivor count (dose: 200.0 mg/kg/injection, schedule: Q04DX003 (ip), vehicle: saline with Tween-80): 0 of 5
survivor count (dose: 400.0 mg/kg/injection, schedule: Q04DX003 (ip), vehicle: saline with Tween-80): 1 of 6

O=C(Nc1ccccc1F)Oc1ccc([N+](=O)[O-])cc1
survivor count [9]: 3 of 6
survivor count (dose: 400.0 mg/kg/injection, schedule: Q01DX009 (ip), vehicle: Klucel (hydroxypropylcellulose) (HPC)): 0 of 6

FC(F)(F)C(=Cc1nc2ccccc2s1)C(F)(F)F
survivor count [1]: 0 of 6
survivor count [2]: 5 of 6
survivor count [3]: 2 of 6
survivor count [5]: 0 of 6

NC(CC(=O)O)c1nn[nH]n1 (stereo not drawn)
survivor count [8]: 6 of 6

Clc1ccc2nccnc2c1
survivor count [5]: 1 of 6
